Reference: PubChem BioAssay AID504847 (National Center for Advancing Translational Sciences (NCATS), 2011)
Screen size: about 400,000 compounds; about 3,700 (0.93%) were called active. The shares of active, inactive and inconclusive entries below differ from those in the screen. The call rests on the fitted dose curve; in most records, active means well fitted inhibition curve with a large enough effect; inconclusive means small, poorly fitted or top-dose-only effect, or another doubt; inactive means no such curve, though single readings can be large or run the other way. Potencies of inconclusive entries are doubtful fits and often do not repeat.

The chains behind the UniProt entries cited, without tags or fusion partners.
UniProt P11473, whole entry, looked up: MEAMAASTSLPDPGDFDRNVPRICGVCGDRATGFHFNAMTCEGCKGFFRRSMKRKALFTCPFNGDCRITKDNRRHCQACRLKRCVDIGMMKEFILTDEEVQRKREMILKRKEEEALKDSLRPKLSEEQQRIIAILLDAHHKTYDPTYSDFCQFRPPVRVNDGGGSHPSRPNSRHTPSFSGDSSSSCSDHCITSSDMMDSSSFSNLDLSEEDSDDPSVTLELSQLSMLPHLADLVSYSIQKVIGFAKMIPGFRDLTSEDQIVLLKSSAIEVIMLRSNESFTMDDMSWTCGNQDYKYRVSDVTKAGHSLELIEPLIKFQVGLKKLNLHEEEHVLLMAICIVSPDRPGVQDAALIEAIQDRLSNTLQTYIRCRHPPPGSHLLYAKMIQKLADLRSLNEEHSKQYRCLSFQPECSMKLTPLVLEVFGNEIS

target: Vitamin D3 receptor (Homo sapiens) (UniProt P11473); test: Inhibitors of the vitamin D receptor (VDR): qHTS; conditions: VDR-SRC2-3 peptide fluorescence polarization, 2 h; max response, negative = inhibition: hits give low values
Summary of the method: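 Measured by FP: displacement of SRC2-3 coactivator peptide from VDR by library compounds, following a two-hour ambient incubation.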
On the % scale 0 is the no-effect control and ±100 the full control effect; potency means the concentration at half of the fitted maximal effect.

SMILES	Potency	max response, negative = inhibition
C=CCOc1c(Cl)cc(CNCCCN2CCOCC2)cc1OC	inconclusive: 0.708 µM [inhibitor, full curve, poor fit]	
C/C(=C(/CCO)SSC[C@@H]1CCCO1)N(C=O)Cc1cnc(C)nc1N	active: 14.1 µM	
Cc1[nH]n(C(N)=S)c(=O)c1N=Nc1ccc2ccccc2c1	inconclusive: 89.1 µM [inhibitor, single point]	
CC(C)(C)c1nnc(NS(=O)(=O)c2ccc(F)cc2)s1	active: 79.4 µM	
CCN1CCN(Cc2c3ccccc3cc3ccccc23)CC1		inactive: -20.7%
COc1ccc(Cc2cc(NCc3ccccc3)c3ncn(C(C)C)c3c2)cc1		inactive: 7.55%
COC(=O)Cn1c(=NC(=O)c2cccc(OC)c2)sc2cc(OC)ccc21	inconclusive: 1.41 µM [inhibitor, full curve, poor fit]	
COc1cccc(C(=O)CSc2nnc(CNS(C)(=O)=O)n2-c2ccc(C)cc2)c1	inconclusive: 89.1 µM [inhibitor, single point]	
COc1ccc(C)cc1N=Nc1ccc(O)c2ncccc12		inactive: 2.6%
Cc1ccc(/C=C/C(=O)N2CCc3ccccc32)o1	inconclusive: 50.1 µM [inhibitor, partial curve, poor fit]	
CCOc1ccc(CNc2cccc(SC)c2)cc1		inactive: 0.427%
CC(OC(=O)Cn1cnc2ccccc2c1=O)C(=O)NCc1ccccc1 (stereo unspecified)		inactive: -1.27%
CCOc1ccccc1NC(=O)c1ccc2c(c1)C(=O)N(CC(C)C)C2=O	inconclusive: 79.4 µM [inhibitor, partial curve, poor fit]	
FC(F)(F)c1ccc(-c2n[nH]c(=S)o2)nc1	inconclusive: 79.4 µM [inhibitor, partial curve, poor fit]	
COc1ccccc1NC(=S)NC(=O)CCc1ccccc1	inconclusive: 70.8 µM [inhibitor, partial curve]	
CCn1c(CSc2n[nH]c(N)n2)nc2cc(C(=O)O)ccc21	inconclusive: 56.2 µM [inhibitor, partial curve, poor fit]	
N#C/C(=C\c1ccccc1)C(=O)N(c1ccccn1)C1CCCCC1	active: 25.1 µM	
O=C(Nc1ccc(C(F)(F)F)cc1)c1ccc2ncsc2c1	inconclusive: 56.2 µM [inhibitor, partial curve, poor fit]	
CCN1CCN(C(=S)NC(C)c2ccccc2)CC1 (stereo unspecified)	inconclusive: 22.4 µM [inhibitor, partial curve, poor fit]	
CC(=O)Oc1cc(O)c2c(c1)OC(c1ccc(OC(C)=O)c(OC(C)=O)c1)C(OC(C)=O)C2=O (stereo unspecified)		inactive: 19.3%
O=C(CCN1CCCCC1)c1cccc(Cl)c1	inconclusive: 89.1 µM [inhibitor, single point]	
CCN(CC)S(=O)(=O)c1ccc(O)c(NC(=O)COc2ccc(S(=O)(=O)N3CCOCC3)cc2)c1	inconclusive: 89.1 µM [inhibitor, single point]	

SMILES	Potency	max response, negative = inhibition
COc1ccc(C=C2C=C(C(C)(C)C)C(=O)C(C(C)(C)C)=C2)cc1OC	inconclusive: 31.6 µM [inhibitor, single point]	
COC(=O)/C=C1/SC(=NC(=O)c2cccc([N+](=O)[O-])c2)NC1=O	inconclusive: 39.8 µM [inhibitor, single point]	
O=C(CNC(=O)C1CCCCC1)OCC(=O)c1ccc([N+](=O)[O-])cc1	inconclusive: 70.8 µM [inhibitor, partial curve, poor fit]	
COC(=O)C(CSCc1ccccc1)NC(=O)CSc1nc(C)cc(=O)[nH]1 (stereo unspecified)		inactive: 15.4%
COc1ccccc1C(=O)Nc1ccc(-c2nc3cc(C)cc(C)c3o2)cc1	active: 89.1 µM	
O=c1oc2cc(Oc3ccc(C(F)(F)F)cc3[N+](=O)[O-])ccc2c2c1CCC2	inconclusive: 79.4 µM [inhibitor, single point]	
CCCCN(C(=O)CSc1cc(C)c2ccccc2n1)c1c(N)n(Cc2ccccc2)c(=O)[nH]c1=O	inconclusive: 70.8 µM [inhibitor, partial curve, poor fit]	
COC(=O)CCC(=O)OC1(C)C(=O)C2=CN(CC3CC3)C(c3ccc(OC)cc3)=CC2=C(Br)C1=O (stereo unspecified)	inconclusive: 14.1 µM [inhibitor, full curve, poor fit]	
CC(C)(C)c1cnnn1-c1ccc(C(=O)CCl)cc1	active: 79.4 µM	
COc1ccc(N2CCN(C3CCCN(S(=O)(=O)c4ccccc4)C3)CC2)cc1 (stereo unspecified)		inactive: -1.64%
Cc1[nH]n(-c2ccccc2)c(=O)c1C(c1cccc([N+](=O)[O-])c1)c1c(C)[nH]n(-c2ccccc2)c1=O	active: 56.2 µM	
C=CC1=C(C(=O)O)N2C(=O)C(NC(=O)/C(=N\O)c3csc(N)n3)C2SC1 (stereo unspecified)	inconclusive: 89.1 µM [inhibitor, single point]	
COC(=O)COc1ccc(/C=N/NC(=O)CN(c2ccccc2OC)S(=O)(=O)c2ccccc2)cc1		inactive: -5.77%
O=C(CN1CCN(S(=O)(=O)N2CCOCC2)CC1)Nc1cc(Cl)ccc1Cl		inactive: -10%
COc1cc(/C=C2/C(=O)NN(c3ccc(F)cc3)C2=O)cc(Cl)c1O	inconclusive: 20 µM [inhibitor, partial curve, poor fit]	
Cc1ccc(C)c(Cn2cc(CCC(=O)NC3CCCCC3)c3ccccc32)c1		inactive: -2.09%
O=C(CCNc1ccccc1)c1cccc([N+](=O)[O-])c1	active: 89.1 µM	
CSC1=C(C#N)C(c2ccccc2Cl)C2=C(N1)c1ccccc1C2=O (stereo unspecified)	inconclusive: 79.4 µM [inhibitor, single point]	
Cc1c(C(=O)Oc2ccc(Cl)cc2)n(C)oc1=O	inconclusive: 79.4 µM [inhibitor, single point]	
CCOC(=O)C(=CNc1ccc(N2CCCCC2)c(S(=O)(=O)Nc2ccccc2OC)c1)C(=O)OCC	inconclusive: 79.4 µM [inhibitor, partial curve, poor fit]	
Cn1c(NCc2ccccc2O)nc2ccccc21		inactive: -0.849%
COc1ccc(CNC(=O)C(C)n2nc(C)c3c(C)n(-c4ccc(C)cc4)nc3c2=O)cc1 (stereo unspecified)	inconclusive: 22.4 µM [inhibitor, partial curve, poor fit]	

SMILES	Potency	max response, negative = inhibition
Cc1cc(C)cc(OCCOCCn2c(-c3ccc(Cl)cc3)nc3ccccc3c2=O)c1		inactive: -101%
COc1ccc(-c2csc3[nH]c(=S)n(-c4ccccc4)c(=O)c23)cc1OC	inconclusive: 89.1 µM [inhibitor, single point]	
O=C(O)COc1ccccc1/C=C1\C(=O)Nc2ccc(Br)cc21	inconclusive: 79.4 µM [inhibitor, partial curve, poor fit]	
CCCN(CCC)c1nc(N)nc(C#N)n1	inconclusive: 17.8 µM [inhibitor, partial curve, poor fit]	
COc1ccc(CCNC(=O)CSCc2ccc([N+](=O)[O-])cc2)cc1OC	inconclusive: 20 µM [inhibitor, full curve, poor fit]	
COc1ccc(-n2c(=O)c3c4c(sc3n(Cc3ccccc3)c2=O)CCC4)c(OC)c1		inactive: 3.07%
CCC1=NN2C(=N)/C(=C/c3ccc(OS(=O)(=O)c4ccccc4)cc3)C(=O)N=C2S1	inconclusive: 89.1 µM [inhibitor, partial curve, poor fit]	
Cn1c(NC(=S)Nc2ccccc2)nc2ccccc21	inconclusive: 0.355 µM [inhibitor, full curve, poor fit]	
Cc1ccc(S(=O)(=O)N2CCN(C(=O)CSc3ccccn3)CC2)c(C)c1	inconclusive: 89.1 µM [inhibitor, single point]	
Cc1ccc(NN=Nc2nc3c([nH]2)c(=O)n(C)c(=O)n3C)cc1	inconclusive: 79.4 µM [inhibitor, partial curve, poor fit]	
O=C(O)c1cc(-c2ccc(Cl)c(Cl)c2)n(-c2ccccc2)n1	inconclusive: 89.1 µM [inhibitor, partial curve, poor fit]	
Cc1cc(C)c(S(=O)(=O)ON2C(=O)c3ccccc3C2=O)cc1C	active: 31.6 µM	
CCCN1C(=O)/C(=C2\SC(N3CCCCC3)=NC2=O)c2ccccc21		inactive: -9.77%
Cc1ncc(CSSCc2cnc(C)c(O)c2CO)c(CO)c1O	inconclusive: 89.1 µM [inhibitor, single point]	
Cc1c(Cl)cccc1NC(=S)N(Cc1cccs1)C1CCCC1	inconclusive: 70.8 µM [inhibitor, single point]	
COc1cccc(CNC(=O)CCNC(=O)c2ccc(Br)o2)c1	inconclusive: 20 µM [inhibitor, partial curve]	
O=C(CSc1ncnc2c1oc1ccccc12)N1CCN(c2ccccc2)CC1		inactive: 12.4%
CC(C)(C)c1nc(NCCO)c2nnn(Cc3ccccc3)c2n1	inconclusive: 100 µM [inhibitor, single point]	
COc1ccc(Cl)cc1NC(=O)c1c(NCc2cccnc2)sc2c1CCCC2	inconclusive: 15.8 µM [inhibitor, partial curve]	
Cc1ccn(C(CC(=O)c2ccc(Br)cc2)C(=O)O)n1 (stereo unspecified)	inconclusive: 89.1 µM [inhibitor, partial curve, poor fit]	
COC(=O)C1=C(NC(C)=O)CCS1		inactive: -2.92%
COc1ccccc1NC(=O)CSc1ncc(CO)n1Cc1ccc(F)cc1	inconclusive: 25.1 µM [inhibitor, single point]	

Single entries from the results shown.
Entry for Cc1ncc(CSSCc2cnc(C)c(O)c2CO)c(CO)c1O under Potency: inconclusive: 89.1 µM [inhibitor, single point]
Entry for CC(C)(C)c1nc(NCCO)c2nnn(Cc3ccccc3)c2n1 under Potency: inconclusive: 100 µM [inhibitor, single point]
Entry for COc1ccc(Cl)cc1NC(=O)c1c(NCc2cccnc2)sc2c1CCCC2 under Potency: inconclusive: 15.8 µM [inhibitor, partial curve]
Entry for Cc1cc(C)c(S(=O)(=O)ON2C(=O)c3ccccc3C2=O)cc1C under Potency: active: 31.6 µM
Entry for Cc1cc(C)cc(OCCOCCn2c(-c3ccc(Cl)cc3)nc3ccccc3c2=O)c1 under max response, negative = inhibition: inactive: -101%
Entry for O=C(O)c1cc(-c2ccc(Cl)c(Cl)c2)n(-c2ccccc2)n1 under Potency: inconclusive: 89.1 µM [inhibitor, partial curve, poor fit]
